The values that follow come from US20220332844A1 (ORIONIS BIOSCIENCES, published 2022).

Amino acid sequences for entries named in this document (tags omitted). A change or cut given only in a name is not applied to a line headed by its entry.
UniProt Q12884: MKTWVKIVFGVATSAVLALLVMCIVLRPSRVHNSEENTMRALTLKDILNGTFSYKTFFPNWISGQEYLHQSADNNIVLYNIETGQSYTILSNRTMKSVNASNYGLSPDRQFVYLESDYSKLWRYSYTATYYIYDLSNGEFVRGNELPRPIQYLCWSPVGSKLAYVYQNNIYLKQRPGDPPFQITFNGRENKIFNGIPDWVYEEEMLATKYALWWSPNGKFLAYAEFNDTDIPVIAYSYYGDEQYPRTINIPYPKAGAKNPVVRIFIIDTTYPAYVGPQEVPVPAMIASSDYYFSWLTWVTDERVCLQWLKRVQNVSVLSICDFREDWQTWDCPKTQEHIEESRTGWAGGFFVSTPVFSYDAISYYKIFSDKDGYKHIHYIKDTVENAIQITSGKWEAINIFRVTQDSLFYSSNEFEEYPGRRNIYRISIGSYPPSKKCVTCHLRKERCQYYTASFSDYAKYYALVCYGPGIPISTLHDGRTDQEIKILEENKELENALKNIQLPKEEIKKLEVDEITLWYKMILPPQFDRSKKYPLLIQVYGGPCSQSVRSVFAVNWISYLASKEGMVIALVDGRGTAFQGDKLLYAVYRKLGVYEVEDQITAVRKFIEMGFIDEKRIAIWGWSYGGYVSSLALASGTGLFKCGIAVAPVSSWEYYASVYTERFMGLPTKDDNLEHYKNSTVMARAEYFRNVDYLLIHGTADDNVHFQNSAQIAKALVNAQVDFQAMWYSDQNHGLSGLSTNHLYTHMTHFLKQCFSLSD

In experiment [1] the target is recombinant human FAPa extracellular domain (human) (UniProt Q12884). As to the kind of experiment: library panning on coated antigen, positive colonies; members in Table 6.
In experiment [2] the target is human FAP on transiently transfected HEK293T cells (pMET7 FLAG-hFAP) (human) (UniProt Q12884). Kind of experiment: FACS, serial dilution of purified VHH on transfected HEK293T cells. A general note: In flow cytometry, cells or beads pass a laser one at a time.

These are yes or no findings as the source states them, for the method shown. Some entries that bind do so weakly or less than the wild type.

B1: 2PE31 (VHH)
VHH: QVQLQESGGGLVQAGGSLSVSCAASGSIFSMGWFRQAPGKQRELVAAVTSGGVTNYADSVKGRFTISRDNAKNTVYLQMKSLKPEDTAVYYCAADSSRGKIYFSNYRSWNYWGQGTQVTVSS
B1: in experiment [1], the binding result was “binds”.

B2: 2PE91 (VHH)
VHH: QVQLQESGGGLVQPGESLRLSCAASGSISSRNAMGWYRQAPGKEREWVAGITSDGITNYADSVKGRFTISRDNAKNTVGLQMNSLKPDDTAVYYCNFWPPLYGRPWGQGTQVTVSS
Regarding B2, in experiment [1], the binding result is reported as “binds”.

B3: 2PE54 (VHH)
VHH: QVQLQESGGGLVQAGGSLRLSCVHSGGIFTIGPLGWYRQAPGSQRELVATVTNGGGTYYADSVKGRFTISRDNAKNTVYLQMNSLKPEDTAVYYCNAAVVTAKGMGAIQSRGYWGQGTQVTVSS
Regarding B3, the binding entry in experiment [1] is “binds”.

B4: 3PE81 (VHH)
VHH: QVQLQESGGGLVQAGGSLRLSCAHSGGIFTIGPLGWYRQAPGSQRELVATVTNGGGTYYADSVKGRFTISRDNAKNTVYLQMNSLKPEDTAVYYCNAAVVTAKGMGAIQSRGYWGQGTQVTVSS
As for B4, the binding result in experiment [1] was “binds”.

B5: 2PE1 (VHH)
VHH: QVQLQESGGGLVQAGGSLRLSCAASGSIFGINAVGWYRQAPGKQRELVATFTRGGDINYADSVKGRFTIFRDNAANTVYLQMNSLKAEDTAVYYCNTPPRIGRGYWGQGTQVTVSS
Turning to B5, the binding entry in experiment [1] is given as “binds”.

B6: 2PE35 (VHH)
VHH: QVQLQESGGGLVQVGGSLRLSCAASGSIFGINAVGWYRQAPGKQRELVATFTRGGDINYADSVKGRFTIFRDNAANTVYLQMNSLKAEDTAVYYCNTPPRIGRGYWGQGTQVTVSS
Turning to B6, in experiment [1], the binding entry was “binds”.

B7: 3PE11 (VHH)
VHH: QVQLQESGGGLVQPGGSLRLSCAASGSIFGINAVGWYRQAPGKQRELVATFTRGGDINYADSVKGRFTIFRDNAANTVYLQMNSLKAEDTAVYYCNTPPRIGRGYWGQGTQVTVSS
Take B7: the binding result in experiment [1] is recorded as “binds”.

B8: 2PE10 (VHH)
VHH: QVQLQESGGGLVQAGGSLRLSCAASGSTFSINAMMWYRQAPGKQRELVASIGSGGNTYYADSVKGRFTISRDNGKSTLYLQMNSLKPEDTAVYYCKMYRPGTYDYWGQGTQVTVSS
B8: the binding entry in experiment [1] is “binds”.

B9: 3PE66 (VHH)
VHH: QVQLQESGGGWVQPGGSLRLSCAASGSTFSINAMMWYRQAPGKQRELVASIGSGGNTYYADSVKGRFTISRDNGKSTLYLQMNSLKPEDTAVYYCKMYRPGTYDYWGQGTQVTVSS
Take B9: in experiment [1], the binding entry is listed as “binds”.

B10: 2PE14 (VHH)
VHH: QVQLQESGGGLVQPGGSLRLSCAASGSTFSINAVAWYRQAPGKRRELVAGISGGGVTNYPDSVKGRFTISRDNAKNTVYLQMSSLKPEDTAVYYCNLWPPRASPGGRVYWGQGTQVTVSS
As for B10, the binding result in experiment [2] and in experiment [1] was “binds” each time.

B11: 2PE20 (VHH)
VHH: QVQLQESGGGLVQPGGSLRLSCAASESTFSINAVAWYRQAPGKRRELVAGISGGGVTNYPDSVKGRFTVSRDNAKNIVYLQMSSLKPEDTAVYYCNLWPPRASPGGRVYWGQGTQVTVSS
In the case of B11, the binding entry in experiment [1] was “binds”.

B12: 2PE36 (VHH)
VHH: QVQLQESGGGLVQPGGSLRLSCAASGSTFSINAVAWYRQAPGKRRELVAGISGGGVTNYPDSVKGRFTISRDNAKNTVYLQMSSLKPEDTAVYYCNLWPPRASPDGRVYWGQGTQVTVSS
Regarding B12, the binding result in experiment [2] and in experiment [1] was “binds” each time.

B13: 3PE57 (VHH)
VHH: QVQLQESGGGLVQPGGSLRLSCAASGSTFSVNAVAWYRQAPGKRRELVAGISGGGVTNYPDSVKGRFTISRDNAKNTVYLQMSSLKPEDTAVYYCNLWPPRASPDGRVYWGQGTQVTVSS
For the molecule B13, the binding result in experiment [2] and in experiment [1] was “binds” in each case.

B14: 2PE44 (VHH)
VHH: QVQLQESGGGLVQPGGSLRLSCAASGSTFSVNAVAWYRQAPGKRRELVAGISGGGVTNYPDSVKGRFTISRDNAKNTVYLQMSSLIPEDTAVYYCNLWPPRASPGGRVYWGQGTQVTVSS
Turning to B14, the binding entry in experiment [2] and in experiment [1] was “binds” in each case.

B15: 3PE12 (VHH)
VHH: QVQLQESGGGLVQPGGSLRLSCAASGSTFSGNAMAWYRQAPGKRRELVAGISGGGVTNYPDSVKGRFTISRDNAKNTVYLQMSSLKPEDTAVYYCNLWPPRVSPGGGVYWGQGTQVTVSS
As for B15, the binding entry in experiment [2] and in experiment [1] was “binds” each time.

B16: 3PE42 (VHH)
VHH: QVQLQESGGGLVQPGESLRLSCAVSGSTSSMNAMAWYRQAPGKRRELVAGISGGGATNYPDSVKGRFTISRDNAKNTVYLQMSSLKPEDTAVYYCNLWPPRASPGGGVYWGQGTQVTVSS
As to B16, the binding entry in experiment [2] and in experiment [1] was “binds” throughout.

B17: 2PE17 (VHH)
VHH: QVQLQESGGGLVQSGGSLRLSCAASGSTFSINAVAWYRQAPGKRRELVAGISGGGVTNYPDSVKGRFTISRDNAKNTVYLQMSSLKPEDTAVYYCNLWPPRASPGGRVYWGQGTQVTVSS
B17: the binding result in experiment [2] and in experiment [1] was “binds” each time.

B18: 2PE42 (VHH)
VHH: QVQLQESGGGLVQAGGSLRLSCAASGSTFSINAVAWYRQAPGKRRELVAGISGGGVTNYPDSVRGRFTISRDNAKNTVYLQMSSLKPEDTAVYYCNLWPPRASPDGRVYWGQGTQVTVSS
For the molecule B18, the binding result in experiment [2] and in experiment [1] was “binds” throughout.

B19: 3PE93 (VHH)
VHH: QVQLQESGGGLVQPGESLRLSCAVSGSTSSMNAMAWYRQAPGKRRELVAGISGGGATNYPDSMKGRFTISRDNAKNTVYLQMSSLKPEDTAVYYCNLWPPRASPGGGVYWGQGTQVTVSS
For the molecule B19, the binding entry in experiment [2] and in experiment [1] was “binds” in each case.

B20: 2PE23 (VHH)
VHH: QVQLQESGGGLVQPGGSLRLSCADSGSTFSINNAMGWYRQAPGKRRDWVAGITSSGVTNYPDSVKGRFTISRDNAKNTVYLQMNSLKPEDTAVYYCNLWPPRASPSGTIYWGQGTQVTVSS
Turning to B20, the binding entry in experiment [1] was “binds”.

B21: 2PE57 (VHH)
VHH: QVQLQESGGGLVQAGGSLRLSCAASLKISSINAMAWYRQAAGKQRELVAGIATDGRTNYAHSVKGRFTISRDNAKNTVYLQMNSLKPEDTAVYYCNQWPPRALDAWGQGTQVTVSS
On to B21, for which, in experiment [1], the binding entry is given as “binds”.

B22: 3PE15 (VHH)
VHH: QVQLQESGGGLVQPGGSLRLSCAASGVTFGIGAMGWYRQTPENERELVAAISSGGSTNYAASVKGRFTISRDNAPNTVYLQMNSLKPEDTAIYYCNVRRGLAWYPGWGQGTQVTVSS
Consider B22, for which the binding result in experiment [1] is “binds”.

B23: 2PE34 (VHH)
VHH: QVQLQESGGGLVQAGGSLRLSCAVSGSTARLDAMGWYRQAPGKQREWVAGIDSADITDYARFVKGRFTISRDNAKNTVYLQMNSLKPEDTAVYYCNKWPPSVPPNWGHGTQVTVSS
In the case of B23, the binding entry in experiment [1] was “binds”.

B24: 3PE80 (VHH)
VHH: QVQLQESGGGLVQAGGSLRLSCAVSGSTARLDAMGWYRQAPGKQREWVAGIDSADITDYARFVKGRFTISRDNAKNTVYLQMNSLKPEDTAVYYCNKWPPSVPPNWGQGTQVTVSS
B24: the binding entry in experiment [1] is “binds”.

B25: 2PE48 (VHH)
VHH: QVQLQESGGGLVQPGGSLRLSCAVSGTMLSRNAMGWYRQAPGKPRQWVAGITSDGLGNYVGFAKGRFTISRDNAKNTVYLQMNTLKPDDTAVYHCNFWPPPSGRPIWGQGTQVTVSS
In the case of B25, in experiment [1], the binding entry was “binds”.

B26: 3PE60 (VHH)
VHH: QVQLQESGGGLVQPGGSLRLSCAVSGTMLSRNAMGWYRQAPGKQRQWVAGITSDGLGNYVDFVKGRFTISRDNARNTVYLQMNTLKPDDTAVYYCNFWPPPSDRPIWGQGTQVTVSS
As to B26, in experiment [1], the binding result is “binds”.

B27: 2PE79 (VHH)
VHH: QVQLQESGGGLVQAGESLRLSCAVSATISSMNSMAWYRQAPGKQREWVAGLETGGRANYVDSVKGRFTISRDNARNTVLLQMNSLKPEDTAVYYCNRWPPLRSSWGQGTQVTVSS
Consider B27, for which the binding result in experiment [1] was “binds”.
